{"sequences": {"note": "By UniProt entry, the sequences of proteins in these tests, tags left out. Where a name states a change or a piece, a line headed by the entry shows the natural chain unless it says otherwise.", "UniProt P11308": "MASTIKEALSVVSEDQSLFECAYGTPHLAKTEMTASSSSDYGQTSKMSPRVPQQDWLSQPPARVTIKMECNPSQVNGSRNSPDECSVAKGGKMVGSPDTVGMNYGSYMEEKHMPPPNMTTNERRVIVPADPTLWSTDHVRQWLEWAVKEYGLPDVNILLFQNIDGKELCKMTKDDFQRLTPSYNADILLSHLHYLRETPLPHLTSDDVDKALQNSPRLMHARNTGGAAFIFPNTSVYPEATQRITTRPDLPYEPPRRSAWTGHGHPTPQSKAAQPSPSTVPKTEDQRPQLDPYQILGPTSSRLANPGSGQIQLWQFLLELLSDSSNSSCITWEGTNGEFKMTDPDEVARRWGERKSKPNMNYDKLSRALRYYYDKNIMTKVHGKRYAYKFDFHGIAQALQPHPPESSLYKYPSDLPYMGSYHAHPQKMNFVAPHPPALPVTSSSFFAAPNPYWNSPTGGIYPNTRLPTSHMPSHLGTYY"}, "source": "PubChem BioAssay AID651804", "about": "(National Center for Advancing Translational Sciences (NCATS), 2012)", "note": "Screen size: about 1,200 compounds; about 20 (2%) were called active. About 23% were inconclusive and are not listed. The call rests on the fitted dose curve; in most records, active means well fitted inhibition curve with a large enough effect; inconclusive means small, poorly fitted or top-dose-only effect; inactive means no such curve, though single readings can be large or run the other way. Some of the results follow."}
{"target": "Transcriptional regulator ERG (Homo sapiens) (UniProt P11308)", "assay": "qHTS for Small Molecule Inhibitors of the ERG Ets/DNA interaction: HTRF assay against cherry picks", "conditions": "His-ERG Ets domain with biotin-DNA; series mostly up to 154 µM; activity change, negative = inhibition: at the top concentration", "procedure,_shortened": "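Compounds were incubated 10 min at RT with ERG Ets domain and biotinylated DNA (each added as 200 nM solution) in pH 7.5 Tris/KCl/EDTA/DTT buffer. Binding was read as FRET (ex 320, em 615 and 665 nm) between anti-His donor and streptavidin acceptor.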"}
{"smiles": "CCOc1ccccc1N1CCN(CC(=O)c2c(N)n(C)c(=O)n(C)c2=O)CC1", "activity change, negative = inhibition": "inactive: -30.2%"}
{"smiles": "CC(=O)C1=C(O)C(=O)N(c2nccs2)C1c1ccccc1", "note": "(stereo not given)", "activity change, negative = inhibition": "inactive: -20.4%"}
{"smiles": "CCOC(=O)c1ccc(NC(=O)c2cn(-c3ccccc3)nc2-c2ccc(OC)c(OC)c2)cc1", "activity change, negative = inhibition": "inactive: 8.81%"}
{"smiles": "CC(C)N1CCN(Cc2ccc(Sc3nncn3C)o2)CC1CCO", "note": "(stereo not given)", "activity change, negative = inhibition": "inactive: -34.9%"}
{"smiles": "CCOc1ccc(NS(=O)(=O)c2ccc(NC(C)=O)c(OC)c2)cc1", "activity change, negative = inhibition": "inactive: -24.9%"}
{"smiles": "Cn1c(CO)cnc1SCc1ccc(F)cc1", "activity change, negative = inhibition": "inactive: -18%"}
{"smiles": "CCOc1ccccc1NC(=O)COc1ccc2ccc(=O)oc2c1", "activity change, negative = inhibition": "inactive: 5.68%"}
{"smiles": "O=C(Nc1cc(-c2nc3cc(Cl)ccc3o2)ccc1Cl)c1cccs1", "activity change, negative = inhibition": "inactive: 111%"}
{"smiles": "COCC(=O)NC1CCN(S(=O)(=O)c2cccc(C(C)=O)c2)CC1", "activity change, negative = inhibition": "inactive: -8.17%"}
{"smiles": "CC1CCCCC1NC(=S)Nc1ccc(Cl)cc1Cl", "note": "(stereo not given)", "activity change, negative = inhibition": "inactive: -25.8%"}
{"smiles": "COc1ccccc1N(C)S(=O)(=O)c1ccc(C(=O)OCC(=O)N2CCCCCC2)cc1", "activity change, negative = inhibition": "inactive: -24.4%"}
{"smiles": "Cc1nccn1C[C@@H]1CCc2c(c3ccccc3n2C)C1=O", "activity change, negative = inhibition": "inactive: -12.8%"}
{"smiles": "Cc1c(C(=O)Cc2ccccc2)n(C)c2ccccc12", "activity change, negative = inhibition": "inactive: -8.75%"}
{"smiles": "N#CC(C(=O)NCc1ccccc1)c1nc2ccccc2nc1N1CCCC1", "note": "(stereo not given)", "activity change, negative = inhibition": "inactive: -25.1%"}
{"smiles": "CCCN(CC(=O)Nc1ccc(OC)c(OC)c1)CC(=O)Nc1ccc(F)c(F)c1F", "activity change, negative = inhibition": "inactive: -22.2%"}
{"smiles": "COc1ccc(N(C(=O)c2snc(C(N)=O)c2N)C(C(=O)NCC2CCCO2)c2ccc3ncccc3c2)cc1OC", "note": "(stereo not given)", "activity change, negative = inhibition": "inactive: -28.8%"}
{"smiles": "Cc1ccccc1NS(=O)(=O)c1ccc(OCCNS(C)(=O)=O)cc1", "activity change, negative = inhibition": "inactive: -17.3%"}
{"smiles": "CCc1cccc(C)c1NC(=O)CSc1nc(C)c(C)o1", "activity change, negative = inhibition": "inactive: -16.9%"}
{"smiles": "Cc1cc(C)cc(N(C(=O)c2csnn2)C(C(=O)NC(C)(C)C)c2ccncc2)c1", "note": "(stereo not given)", "activity change, negative = inhibition": "inactive: -28.2%"}
{"smiles": "Oc1cncc(Cc2ccccc2)c1", "activity change, negative = inhibition": "inactive: -32.7%"}
{"smiles": "CCN(CC)S(=O)(=O)c1ccc2c(c1)c(=O)c(C(=O)NCCc1ccccc1)cn2C", "activity change, negative = inhibition": "inactive: -22.2%"}
{"smiles": "COc1ccc(-c2cc(N)n(S(=O)(=O)Cc3ccccc3)n2)c(OC)c1", "activity change, negative = inhibition": "inactive: -25%"}
{"smiles": "Cc1[nH]cnc1CN1CCc2c(c3ccccc3n2C)C1=O", "activity change, negative = inhibition": "inactive: 0.106%"}
{"smiles": "O=C(C1CC(=O)N(c2ccc(Cl)cc2)C1)N1CCCCCC1", "note": "(stereo not given)", "activity change, negative = inhibition": "inactive: 0.955%"}
{"smiles": "CCOC(=O)c1cn2nc(Oc3ccc(NC(C)=O)cc3)ccc2n1", "activity change, negative = inhibition": "inactive: -26.7%"}
{"smiles": "O=C(NNC(=O)c1sccc1-n1cccc1)Nc1ccccc1", "activity change, negative = inhibition": "inactive: -2.86%"}
{"smiles": "Cc1ccc(F)cc1NC(=O)CCc1c(C)[nH]c(=O)c(C#N)c1C", "activity change, negative = inhibition": "inactive: -19.1%"}
{"smiles": "Cc1ccc(S(=O)(=O)NNC(=S)NC(=O)c2ccc([N+](=O)[O-])cc2)cc1", "activity change, negative = inhibition": "inactive: -39.4%"}
{"smiles": "Cc1nn2c(=O)c3c4c(sc3nc2n1-c1ccccc1)COC(C)(C)C4", "activity change, negative = inhibition": "inactive: 28.1%"}
{"smiles": "CC(=O)c1cccc(NC(=S)N2CCN(S(=O)(=O)c3ccc(F)cc3)CC2)c1", "activity change, negative = inhibition": "inactive: -27.4%"}
{"smiles": "O=C(O)CNC(=O)/C(=C\\c1ccc2c(c1)OCO2)NC(=O)c1ccc(Br)cc1", "activity change, negative = inhibition": "inactive: -15.4%"}
{"smiles": "Cc1ccc(C)c(N2CCN(C(=O)C(C)n3c(C)c4cnn(-c5ccccc5)c(=O)c4c3C)CC2)c1", "note": "(stereo not given)", "activity change, negative = inhibition": "inactive: -4.67%"}
{"smiles": "CCc1c(C(=O)N/N=C/c2sccc2C)nnn1-c1nonc1N", "activity change, negative = inhibition": "inactive: -12.1%"}
{"smiles": "Cc1noc(C)c1C(=O)NCc1cccs1", "activity change, negative = inhibition": "inactive: -4.03%"}
{"smiles": "CN(CC(=O)NC(=O)NC1CCCCC1)CC(=O)Nc1ccc(Cl)cc1", "activity change, negative = inhibition": "inactive: -7.16%"}
{"smiles": "COC(=O)C1CSC(C(=O)OC)N1C(=O)CN1CCN(c2ccccc2)CC1", "note": "(stereo not given)", "activity change, negative = inhibition": "inactive: 5.94%"}
{"smiles": "Cc1ccc(-n2c(C)cc(C(=O)NS(=O)(=O)c3ccc(C)cc3)c2C)cc1", "activity change, negative = inhibition": "inactive: -22.5%"}
{"smiles": "COCCN(Cc1cc2cc(C)ccc2n2nnnc12)C(=S)Nc1ccc(OC)cc1", "activity change, negative = inhibition": "inactive: 167%"}
{"smiles": "Nc1cnccc1C(=O)O", "activity change, negative = inhibition": "inactive: -25.4%"}
{"smiles": "CCNC(=S)NC(=NCc1cccnc1)Nc1nc(C)cc(C)n1", "activity change, negative = inhibition": "inactive: -8.54%"}
{"smiles": "CC(=O)Nc1ccc(S(=O)(=O)Nc2nc3ccccc3nc2Nc2ccc(O)c(C(=O)O)c2)cc1", "activity change, negative = inhibition": "inactive: -17.6%"}
{"smiles": "CCNC(=S)N1CCC(C(O)(c2ccccc2)c2ccccc2)CC1", "activity change, negative = inhibition": "inactive: 3.45%"}
{"smiles": "C[C@@H]1CN([C@H](C)CO)C(=O)c2cc(NC(=O)Nc3ccc(F)cc3)ccc2O[C@H]1CN(C)C(=O)Nc1ccc(C(F)(F)F)cc1", "activity change, negative = inhibition": "inactive: -29.3%"}
{"smiles": "C=CCOc1ccc(C(c2c(C(=O)O)[nH]c3ccccc23)c2c(C(=O)O)[nH]c3ccccc23)cc1", "activity change, negative = inhibition": "inactive: -22.4%"}
{"smiles": "O=C(CC1C[C@H](C(=O)N2CCOCC2)[C@@]2(CCC3CCCC3)c3[nH]c4ccccc4c3CCN2C1=O)NCC12CC3CC(CC(C3)C1)C2", "note": "(stereo not given in full)", "activity change, negative = inhibition": "inactive: -15.3%"}
{"smiles": "Cc1cc(C)cc(N2C(=O)c3nccnc3C2=O)c1", "activity change, negative = inhibition": "inactive: -25.9%"}
{"smiles": "CCOc1cc(CNCC2CCCN2CC)cc(Cl)c1OC", "note": "(stereo not given)", "activity change, negative = inhibition": "inactive: -27.4%"}
{"smiles": "Cc1cccc(N2C(=O)CC(Cn3nc(C)cc3C)C2=O)c1", "note": "(stereo not given)", "activity change, negative = inhibition": "inactive: 6.26%"}
{"smiles": "COc1ccc(CCNC(=O)CCNC(=O)c2ccco2)cc1", "activity change, negative = inhibition": "inactive: 7.27%"}
{"smiles": "Oc1ccc(NCc2ccc(OCc3ccccc3Cl)cc2)cc1", "activity change, negative = inhibition": "inactive: -22.3%"}
{"smiles": "Cc1nc(-c2ccc(F)cc2)c(CC(=O)Nc2ccc(C)c(S(=O)(=O)N3CCOCC3)c2)s1", "activity change, negative = inhibition": "inactive: -19.5%"}
{"smiles": "Cc1cc2cc(CNC(=O)c3ccc(S(=O)(=O)N4CCCCC4)cc3)ccc2n1C", "activity change, negative = inhibition": "inactive: 137%"}
{"smiles": "CCOc1ccc(-c2ncncc2-c2ccccc2OC)c(O)c1", "activity change, negative = inhibition": "inactive: -28.8%"}
{"smiles": "COc1ccc(N2CC(NC(=O)c3ccc4c(c3)OCO4)CC2=O)cc1", "note": "(stereo not given)", "activity change, negative = inhibition": "inactive: -28.4%"}
{"smiles": "CC(NC(=O)c1ccco1)c1nc(-c2ccc(C(C)(C)C)cc2)no1", "note": "(stereo not given)", "activity change, negative = inhibition": "inactive: -19.6%"}
{"smiles": "CCN(CC)c1ccc([N+](=O)[O-])cc1C(=O)O", "activity change, negative = inhibition": "inactive: -28%"}
{"smiles": "COc1ccc(CCNC(=O)Cn2c(=O)n(CCCC(=O)NCc3ccco3)c(=O)c3sccc32)cc1OC", "activity change, negative = inhibition": "inactive: -5.73%"}
{"smiles": "O=C(NCc1ccc2c(c1)OCO2)C1CCN(S(=O)(=O)N2CCCCC2)CC1", "activity change, negative = inhibition": "inactive: -18.2%"}
{"smiles": "CN(C)c1nc(N)nc(Cn2nnc(-c3ccc(C(F)(F)F)cc3)n2)n1", "activity change, negative = inhibition": "inactive: -38.6%"}
{"smiles": "Nc1nc(Cl)c2ncn(C3OC(CO)C(O)C3O)c2n1", "note": "(stereo not given)", "activity change, negative = inhibition": "inactive: -9.18%"}
